# Assay results taken from the supplement of paper PMC3334620.
# Over roughly 33,000 sequences, “E-score (-0.5 to 0.5)” has its median near -0.016; the highest 2% begin near 0.3. Some of the results follow.
# Target: T1, Yer184c (UniProt P39961)
# T1 sequence: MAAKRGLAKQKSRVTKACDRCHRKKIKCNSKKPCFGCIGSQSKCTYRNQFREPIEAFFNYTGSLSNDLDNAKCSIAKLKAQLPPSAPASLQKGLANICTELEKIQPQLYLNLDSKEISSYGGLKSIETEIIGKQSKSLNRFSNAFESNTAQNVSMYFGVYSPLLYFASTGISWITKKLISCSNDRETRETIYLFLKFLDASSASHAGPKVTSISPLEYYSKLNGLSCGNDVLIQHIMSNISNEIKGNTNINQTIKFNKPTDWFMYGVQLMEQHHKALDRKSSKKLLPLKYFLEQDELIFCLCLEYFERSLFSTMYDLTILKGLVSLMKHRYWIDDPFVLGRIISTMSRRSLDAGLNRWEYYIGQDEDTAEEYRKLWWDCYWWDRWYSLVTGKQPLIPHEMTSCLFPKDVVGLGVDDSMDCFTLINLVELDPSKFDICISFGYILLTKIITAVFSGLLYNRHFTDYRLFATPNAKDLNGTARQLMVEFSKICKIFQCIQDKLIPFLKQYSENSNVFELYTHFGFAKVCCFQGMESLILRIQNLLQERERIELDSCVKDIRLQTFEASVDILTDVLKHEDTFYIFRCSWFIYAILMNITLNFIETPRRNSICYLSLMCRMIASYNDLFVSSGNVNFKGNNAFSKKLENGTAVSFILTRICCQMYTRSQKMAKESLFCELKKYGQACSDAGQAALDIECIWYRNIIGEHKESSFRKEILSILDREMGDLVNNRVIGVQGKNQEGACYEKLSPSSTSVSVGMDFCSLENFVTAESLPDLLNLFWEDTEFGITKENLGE
# Experiment: PBM E-score (8-mer binding enrichment) (E-score (-0.5 to 0.5)); higher = stronger / more preferred TF binding
# Conditions: protein concentration: 100 nM; construct: GST-full length
# Outline: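 Universal all-10-mer Agilent arrays, double-stranded by primer extension on fresh or once-stripped slides, were probed with about 100-200 nM GST-tagged yeast transcription factors made by PURExpress. Fluorescent anti-GST detected bound protein, and masliner normalised the scans. E-scores from the Universal PBM Analysis Suite were given to each ungapped eight-base word pooled with its reverse complement.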
row,Sequence,PBM E-score
1,GGGACGCA,-0.0959
2,AGTAACCA,-0.0255
3,AACCACTC,-0.108
4,CGAGCGAC,-0.0115
5,AAGCATCT,-0.148
6,CCCTATCA,-0.147
7,ACAATTGT,0.097
8,ACCTATGA,-0.155
9,ACCGGAAG,0.279
10,AGAGCTAT,-0.157
11,CATCCCTA,-0.083
12,CCTACTGC,-0.15
13,GTCTACAC,-0.0815
14,AACTAACA,0.155
15,AATATCCG,0.352
16,GTCAGTAA,0.00655
17,ATTAGCCA,-0.141
18,CCGGGGAC,0.00683
19,GTCTATCA,0.0292
20,ACAGGAAA,0.257
21,ACCTCGAA,0.111
22,ACATGATA,0.202
23,AAGGTGTG,-0.171
24,GGGCTTAC,-0.0659
25,CCCCTCAA,-0.226

row,Sequence,PBM E-score
1,ACAGGGCT,-0.338
2,GTACCCCA,-0.155
3,CTACGTCC,-0.178
4,ACATTACC,0.0271
5,ACGTAGCC,-0.247
6,ATTTAAGA,0.0141
7,CCCGTGGC,-0.103
8,GCCACCTA,-0.245
9,AATCCAAA,0.0888
10,GTGCAGCA,-0.0661
11,CATGGGCA,-0.0913
12,AATTCACG,0.0096
13,GCTGTTCA,0.111
14,ACAGAATA,0.0927
15,GAATACAC,-0.0036
16,GCAAGTGA,-0.117
17,TAGGACAA,-0.0352
18,AGGTTACA,-0.077
19,ACTGGCGA,-0.381
20,CACTACCC,-0.135
21,ACGACATC,-0.079
22,AATGGAAG,0.00111
23,CTGCCGAA,0.297
24,ACACCGAG,0.148
25,CCTGGAAG,-0.251

row,Sequence,PBM E-score
1,CAGGATCG,-0.0543
2,AAAGAGAG,-0.165
3,CCCGGAAA,0.396
4,ACTAGCGC,-0.159
5,ACTAATCA,0.0915
6,CAATTTCG,0.0214
7,TCATATCA,0.0786
8,CCATCCAC,-0.19
9,AACTGATC,-0.0867
10,CCGCAACG,0.226
11,ATTATCAA,0.182
12,ATAGGGTG,-0.214
13,GTTGGATA,0.0184
14,AGTCATCC,-0.0833
15,CATAAGGA,-0.0735
16,GCGCGTAC,-0.00653
17,CAGCCCGG,0.299
18,ACTCTTGG,-0.186
19,CTCCGACA,0.121
20,CCCATCGG,0.137
21,AGGCTCTA,-0.242
22,TCAAGAGA,0.0301
23,ATCGCTCC,-0.0866
24,AAGCCTTG,-0.165
25,ACGTAAGT,-0.14

# In a second layout: results already given.
row	Sequence	PBM E-score
1	CAGGATCG	-0.0543
9	AACTGATC	-0.0867
13	GTTGGATA	0.0184
19	CTCCGACA	0.121
21	AGGCTCTA	-0.242
24	AAGCCTTG	-0.165

# Shown tab-delimited: entries from further up.
row	Sequence	PBM E-score
8	CCATCCAC	-0.19
9	AACTGATC	-0.0867

# The list goes on.

row,Sequence,PBM E-score
1,CCTATCCA,-0.177
2,CCGGAGCC,0.289
3,GCCTGGCC,-0.12
4,ATACGATA,0.0832
5,ACCTTGAA,-0.136
6,GACTATGC,-0.0813
7,ACTATGAC,-0.147
8,ATTTGTCG,0.161
9,AAATTACG,0.0604
10,ACGAACTG,-0.0655
11,AGGGATGC,-0.459
12,CAAGAGGG,-0.272
13,ACCACCCG,-0.0892
14,AACGTATG,-0.184
15,AGGAGTTA,-0.0333
16,TACGGGAA,0.142
17,CGGGAGAA,0.117
18,ACCTAGTC,-0.244
19,AGGGCTAT,-0.414
20,CCTCATGA,-0.0304
21,TCACATCA,0.00032
22,GACCACCC,-0.312
23,ATCCGTTG,0.265
24,TACACGAA,0.229
25,ATGGATGA,-0.109

row,Sequence,PBM E-score
1,AAAACCGA,0.169
2,AGCAGGGA,-0.124
3,ATTAATCA,0.164
4,TCATGACA,0.135
5,GAACGACC,-0.218
6,CCTGAAGA,0.0305
7,TCCCGTCA,-0.002
8,CTCCACAG,-0.298
9,AATCGAGG,0.119
10,AATGTCTG,0.0283
11,CGCGATGA,0.0277
12,AATAGAGT,-0.116
13,CAAGTGAG,-0.182
14,CAATGTAA,0.174
15,TAAAACGA,-0.00919
16,ACAACCAG,0.103
17,ATGTACCC,-0.114
18,CTACACGA,0.112
19,AAACATCC,0.261
20,ATGGCAAA,0.0966
21,AACATGAG,-0.0128
22,CGCATGAA,0.0183
23,AGAAGAAC,-0.0703
24,AATGTATC,0.149
25,CACACACA,0.0185

# Four entries from above in another layout:
row | Sequence | PBM E-score
1 | AAAACCGA | 0.169
9 | AATCGAGG | 0.119
14 | CAATGTAA | 0.174
25 | CACACACA | 0.0185

# Following part:

row,Sequence,PBM E-score
1,AGGCACAT,-0.0764
2,GCGTCGAA,0.0873
3,CCTGCGAA,-0.0657
4,CAGCAGAA,0.0921
5,CCCATCCC,-0.229
6,CTAACTAG,0.134
7,TGTGGTAA,0.137
8,AGTCACAT,0.0228
9,CTCACAAC,0.108
10,TAATCGGA,0.248
11,ATCCTCGA,0.02
12,CGTTAAGA,-0.042
13,ACGGAAAA,0.309
14,CGCGAGAG,-0.0648
15,AACCGGAC,0.212
16,ATGGTCAC,-0.114
17,AGGCAGTG,-0.184
18,ACCTCTCG,-0.261
19,ATGTAGCG,-0.243
20,ATAGAGGA,-0.115
21,AGGCCGCC,-0.175
22,GAGATCCC,-0.018
23,ACCGGCCA,0.173
24,AATGGATC,-0.0164
25,GAGATAAA,0.173

row,Sequence,PBM E-score
1,ACCTCAGA,-0.237
2,TGCTTCAA,0.0483
3,ACATTCCA,-0.024
4,ATCCCAGA,-0.127
5,CCACAGAG,-0.188
6,CCAAAACA,-0.0949
7,TCTATGAA,0.112
8,ACCTGCCA,-0.137
9,GGCTGCAA,0.0741
10,AGTCCATG,-0.198
11,ACCTGAAC,-0.0787
12,GCTGATCC,-0.0722
13,AAAATATC,0.244
14,AGAATAAC,-0.0322
15,CGGTACAA,0.197
16,AAGATGGG,-0.0355
17,CGTTCTAA,0.153
18,GCCGTCGA,0.00267
19,TCACCCAA,-0.0225
20,CAACCACC,0.0101
21,ATGGAGGG,-0.291
22,ATTGCCGC,0.162
